# From PubChem BioAssay AID888 (National Center for Advancing Translational Sciences (NCATS), 2007)
# Chains of the proteins cited; added tags and fusions are not shown. Residues count along the entry.
# UniProt P29466, 317-404 limits assumed: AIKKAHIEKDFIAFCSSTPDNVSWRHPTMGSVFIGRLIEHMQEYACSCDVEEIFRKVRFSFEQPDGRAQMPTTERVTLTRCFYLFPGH
# UniProt P29466, 120-297 limits assumed: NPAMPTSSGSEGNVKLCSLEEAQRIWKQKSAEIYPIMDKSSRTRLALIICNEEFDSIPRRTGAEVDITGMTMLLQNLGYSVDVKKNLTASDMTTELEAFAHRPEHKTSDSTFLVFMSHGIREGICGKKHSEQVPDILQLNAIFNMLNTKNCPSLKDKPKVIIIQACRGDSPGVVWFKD
# Inconclusive results, whose numbers are uncertain, are shown with a selection of clear calls. A potency beside an inconclusive call is a rough fit, not a confirmed value. The source made the active and inactive calls. Calls come from the whole dose curve; as a rule, active = well fitted inhibition curve with a large enough effect in the main read-out, with a control signal flat; inconclusive = small, poorly fitted or top-dose-only effect, or a change in a side signal; inactive = no such curve, though single readings can be large or run the other way.
# Target: Caspase-1 (Homo sapiens) (UniProt P29466)
# Assay: Concentration-Response Counterscreen for Redox Active Inhibitors of Caspase-1: Catalase
# Details: caspase-1 Ac-WEHD-AFC fluorescence rate, catalase buffer; series mostly up to 57.5 µM
# Source text: NIH Molecular Libraries Screening Centers Network [MLSCN] NIH Chemical Genomics Center [NCGC] MLSCN Grant: 1 X01 MH078950-01 PI Name: Dr. James Wells, Dr. Enrique Perez-Paya, Dr.Janice Williams, Dr. Dennis Wolan, a person NCGC Assay Overview: The caspases (Cysteine Aspartyl Protease) comprise a related family of 14 dimeric proteases that are critical mediators of apoptosis (programmed cell death) and inflammation. The caspases represent an important class of drug targets for stroke, ischemia, cancer and inflammatory diseases. […] One goal of this project was to identify compounds that act as allosteric inhibitors via stabilizing the procaspase form of the enzyme. Previous work in Well's laboratory has shown that such allosteric inhibitors can be identified and these act by binding at the dimer interface of enzyme (Hardy, Lam et al., 2004). The biochemical assay was configured using purified caspase 1 at a high enzyme concentration to promote formation of the homodimers and thus facilitate the identification of allosteric inhibitors. The overall goal was to identify reversible inhibitors with better drug-like properties than the currently available set of aspartyl-containing peptidomimetics that covalently bind the active site. Caspase 1 was assayed using the profluorescent substrate Ac-WEHD-AFC. After initiation of the assay with substrate the plates were rapidly read using an automated robotic system (Kalypsys, Inc.) to maintain consistent timing. A kinetic mode of detection was used where the initial rate was collected (estimated final product formation was ~10%). Compounds were screened as a concentration-titration series that ranged from 57 uM to 0.7 nM. Compounds that generate reactive oxygen species can lead to high hit rates in HTS biochemical assays. This mechanism was cited by Smith et al. (2002) as the main artifact responsible for >85% of the hits in an HTS against caspase 8. We identified a series of putative inhibitors in an enzymatic screen of caspase 1 and we performed two assays to test if these compounds operated by such a redox-active mechanism. Based on the published work, compounds that appear active due to a redox-active mechanism will show shifts in inhibition potency when the redox potential of the buffer is changed. Compounds that show a change in IC50 upon switching the buffer system from DTT to cysteine or DTT and the enzyme catalase are suspected to be redox active compounds.
# NCGC Assay Protocol Summary: Caspase 1 was prepared in buffer (50 mM HEPES pH 7.5, 50 mM KCl, 200 mM NaCl, 50 units/well catalase (from bovine liver, Sigma cat#100), 0.1% CHAPS) at a concentration of 66.6 nM and 3 uL was dispensed to all wells using black solid Kalypsys 1536-well plates. 20 nL of DMSO containing compounds was added using a pin-tool (Kalypsys Inc.) to columns 5-48. Then 20 nL of DMSO solution from a control plate was added to columns 1-4. Controls were: Column 1, 16 point titration with each concentration in duplicate (1:1 dilutions in DMSO; final starting concentration was 57 uM) of the caspase 1 inhibitor Ac-WEHD-CHO (Alexis Biochemicals); Column 2, a 16 point titration with each concentration in duplicate of the free AFC fluorophore prepared in DMSO (Alexis Biochemicals), final starting was 40 uM; Column 3 neutral (DMSO only) control; Column 4: DMSO alone, to serve as a negative control (no substrate was added). Then 1 uL of 20 uM the substrate Ac-WEHD-AFC (Alexis Biochemicals) prepared in the same buffer was dispensed to all wells except columns 2 and 4 and the plates were immediately transferred (< 1 min) to the Viewlux. The plates were then exposed using 405 nm excitation/520 nm emission filters for 4 sec and read at 20 sec intervals for 3 min. Final enzyme concentration was 50 nM and the final substrate concentration was 5 uM. Concentration-response curves were fitted to the data calculated from slope of the linear regression of fluorescent intensity versus time (the rate). […]
row,SMILES,Potency
1,COc1ccc(S(=O)(=O)Nc2ccc(O)c3ccccc23)cc1,inactive
2,COc1ccc(C2CC(=O)N3CN(c4ccc(C)c(Cl)c4)CSC3=C2C#N)cc1OC (configuration not stated),inactive
3,O=c1cnnc(SCCc2ccccc2)[nH]1,inactive
4,Cc1ccc(N2C(=O)[C@@H]3[C@H](C2=O)C2c4ccccc4C=CN2[C@@H]3C(=O)c2ccco2)c(C)c1 (some centres not stated),active: 31.6 µM
5,Cn1ncnc2c(=O)n(C)c(=O)nc1-2,active: 1.12 µM
6,COc1ccc2c(c1)Cc1sc(NC(=O)c3cccs3)nc1-2,"inconclusive: 31.6 µM [inhibitor, partial curve]"
7,O=C(O)c1cc(O)c2c(c1)C(=O)c1cccc(O)c1C2=O,"inconclusive: 25.1 µM [inhibitor, partial curve]"
8,COc1ccc2c(c1)C(=O)N(c1ccccc1OC)C(=O)C2,"inconclusive: 31.6 µM [inhibitor, partial curve]"
9,COc1ccc(Cn2c(=O)[nH]c3cc(C(=O)N4CCN(Cc5ccccc5)CC4)ccc3c2=O)cc1,inactive
10,CCn1nc(-c2ccccc2)nc2c(=O)n(C)c(=O)nc1-2,active: 0.794 µM
11,CC(=O)[C@@H]1[C@@H]2C(=O)N(c3ccc(F)c(Cl)c3)C(=O)[C@@H]2C2c3ccccc3C=CN21 (some centres not stated),"inconclusive: 31.6 µM [inhibitor, partial curve]"
12,O=C(COC(=O)c1cc(-c2ccco2)nc2ccccc12)NCc1ccc2c(c1)OCO2,"inconclusive: 25.1 µM [inhibitor, partial curve]"

# Reprinted at random: 2 compounds from above.
row,SMILES,Potency
3,O=c1cnnc(SCCc2ccccc2)[nH]1,inactive
6,COc1ccc2c(c1)Cc1sc(NC(=O)c3cccs3)nc1-2,"inconclusive: 31.6 µM [inhibitor, partial curve]"
